Source: PMC5548489
These are yes or no findings as the source states them, for the method shown. For part of these data: Binding seen in cells or lysates may run through a third protein. Some results given as binding are weak or reduced against the parent protein; the word gives no strength.

Amino acid sequences for entries named in this document (tags omitted).
UniProt P03372: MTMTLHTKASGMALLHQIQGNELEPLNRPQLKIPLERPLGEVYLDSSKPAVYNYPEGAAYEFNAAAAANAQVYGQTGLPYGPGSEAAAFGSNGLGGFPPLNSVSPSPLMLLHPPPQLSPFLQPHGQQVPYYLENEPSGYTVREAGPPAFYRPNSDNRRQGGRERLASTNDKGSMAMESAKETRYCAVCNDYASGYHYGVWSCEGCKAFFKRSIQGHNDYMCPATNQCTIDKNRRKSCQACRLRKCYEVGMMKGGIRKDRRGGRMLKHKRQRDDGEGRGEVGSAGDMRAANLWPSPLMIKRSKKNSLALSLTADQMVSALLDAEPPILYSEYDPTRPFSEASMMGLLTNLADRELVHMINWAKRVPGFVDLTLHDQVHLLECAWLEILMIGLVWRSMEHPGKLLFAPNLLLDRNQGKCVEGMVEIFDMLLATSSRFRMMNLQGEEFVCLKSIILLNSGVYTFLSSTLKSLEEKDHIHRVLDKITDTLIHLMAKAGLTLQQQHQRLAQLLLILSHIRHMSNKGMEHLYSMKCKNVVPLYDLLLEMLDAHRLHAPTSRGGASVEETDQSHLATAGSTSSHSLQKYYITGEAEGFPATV
UniProt Q8IZL8: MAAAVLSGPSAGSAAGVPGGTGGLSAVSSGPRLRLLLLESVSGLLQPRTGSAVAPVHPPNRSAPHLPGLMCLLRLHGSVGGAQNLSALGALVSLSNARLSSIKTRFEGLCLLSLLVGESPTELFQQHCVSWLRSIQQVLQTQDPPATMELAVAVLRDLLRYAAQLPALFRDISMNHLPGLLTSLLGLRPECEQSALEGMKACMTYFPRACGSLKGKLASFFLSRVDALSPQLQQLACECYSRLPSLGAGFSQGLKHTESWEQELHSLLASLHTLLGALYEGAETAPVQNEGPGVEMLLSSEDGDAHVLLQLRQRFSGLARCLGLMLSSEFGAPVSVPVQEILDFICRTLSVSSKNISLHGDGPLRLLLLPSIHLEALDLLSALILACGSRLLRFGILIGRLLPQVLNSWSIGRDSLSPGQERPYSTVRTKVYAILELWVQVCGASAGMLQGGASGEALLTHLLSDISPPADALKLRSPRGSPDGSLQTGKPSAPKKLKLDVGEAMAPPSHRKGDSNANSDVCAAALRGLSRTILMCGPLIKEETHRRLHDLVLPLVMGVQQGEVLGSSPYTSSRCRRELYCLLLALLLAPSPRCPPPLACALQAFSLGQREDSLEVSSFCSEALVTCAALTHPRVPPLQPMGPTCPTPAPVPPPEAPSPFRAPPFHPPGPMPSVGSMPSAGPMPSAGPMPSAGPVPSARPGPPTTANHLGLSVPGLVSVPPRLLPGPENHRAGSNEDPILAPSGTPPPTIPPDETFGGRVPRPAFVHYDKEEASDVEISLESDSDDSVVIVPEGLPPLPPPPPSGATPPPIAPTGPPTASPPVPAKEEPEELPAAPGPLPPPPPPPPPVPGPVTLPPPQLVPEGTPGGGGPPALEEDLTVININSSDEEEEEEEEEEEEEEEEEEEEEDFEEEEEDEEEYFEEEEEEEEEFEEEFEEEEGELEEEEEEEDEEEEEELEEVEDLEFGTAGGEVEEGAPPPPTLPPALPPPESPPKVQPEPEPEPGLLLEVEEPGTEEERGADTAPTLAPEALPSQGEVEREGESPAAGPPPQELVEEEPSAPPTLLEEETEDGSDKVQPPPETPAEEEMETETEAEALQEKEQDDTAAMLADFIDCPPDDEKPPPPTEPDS

Experiments:
C-LgBit-ESR1 (human) = C-LgBit-ESR1 (human) (UniProt P03372); experiment: split reporter; NanoBiT in living HEK-293T cells, transient transfection; DMSO or 10 µM ERX-11 2 hr, then EtOH or 10 nM E2 30 min; luminescence
[1] = target: estrogen receptor alpha (ER) (human (endogenous in MCF-7 and ZR-75)) (UniProt P03372); experiment: proximity ligation; MCF-7 cells on cover slips (quantified also in ZR-75), vehicle or 10 µM ERX-11 30 min, then 10 nM E2 30 min; Duolink in situ PLA; tamoxifen also tested
[2] = target: estrogen receptor alpha (ER) (human (endogenous in MCF-7 and ZR-75)) (UniProt P03372); experiment: co-IP; endogenous proteins in MCF-7 cells, with or without ERX-11; western blotting
C-LgBit-PELP1 (human) = C-LgBit-PELP1 (human) (UniProt Q8IZL8); experiment: split reporter; NanoBiT in living HEK-293T cells, transient transfection; DMSO or 10 µM ERX-11 2 hr, then EtOH or 10 nM E2 30 min; luminescence
Purified full-length ER = Purified full-length ER (UniProt P03372); experiment: pull-down; competition: purified full-length ER with biotin-ERX-11 (small molecule) and E2, with or without 1 µM LXXLL peptide; avidin beads, western blot of ER; both purified
[3] = target: estrogen receptor alpha (ER) (human (endogenous in MCF-7 and ZR-75)) (UniProt P03372); experiment: co-IP; endogenous proteins in MCF-7 cells, with or without ERX-11; western blotting; remark: listed apart in the source

Q: With “C-SmBit-PELP1 (from UniProt Q8IZL8 1-1130)” as the molecule, how does the binding (C-LgBit-ESR1 (human)) read?
A: binds

Q: For PELP1 (from UniProt Q8IZL8 1-1130), which binding [1] is on record?
A: binds

Q: What about the binding [2] of the same molecule?
A: binds

Q: For “C-SmBit-ESR1 (from UniProt P03372 1-595) (receptor)”, which binding (C-LgBit-PELP1 (human)) is on record?
A: binds

Q: Which binding (Purified full-length ER) does the source give for LTARHKILHRLLQEGSPSD [SRC1- LXXLL peptide] here?
A: binds

Q: For DSKGQTKLLQLLTTKSDQM [SRC2- LXXLL peptide], which binding (Purified full-length ER) is on record?
A: binds

Q: How did the binding (Purified full-length ER) turn out when ESKGHKKLLQLLTCSSDDR [SRC3/AIB1- LXXLL peptide] was run?
A: binds

Q: SIKTRFEGLCLLSLLVGESPT [PELP1-3 LXXLL peptide] was tested. Which binding (Purified full-length ER) did it give?
A: binds

B1: TIF1α (protein, UniProt O15164 1-1050)
chain: MEVAVEKAVAAAAAASAAASGGPSAAPSGENEAESRQGPDSERGGEAARLNLLDTCAVCHQNIQSRAPKLLPCLHSFCQRCLPAPQRYLMLPAPMLGSAETPPPVPAPGSPVSGSSPFATQVGVIRCPVCSQECAERHIIDNFFVKDTTEVPSSTVEKSNQVCTSCEDNAEANGFCVECVEWLCKTCIRAHQRVKFTKDHTVRQKEEVSPEAVGVTSQRPVFCPFHKKEQLKLYCETCDKLTCRDCQLLEHKEHRYQFIEEAFQNQKVIIDTLITKLMEKTKYIKFTGNQIQNRIIEVNQNQKQVEQDIKVAIFTLMVEINKKGKALLHQLESLAKDHRMKLMQQQQEVAGLSKQLEHVMHFSKWAVSSGSSTALLYSKRLITYRLRHLLRARCDASPVTNNTIQFHCDPSFWAQNIINLGSLVIEDKESQPQMPKQNPVVEQNSQPPSGLSSNQLSKFPTQISLAQLRLQHMQQQVMAQRQQVQRRPAPVGLPNPRMQGPIQQPSISHQQPPPRLINFQNHSPKPNGPVLPPHPQQLRYPPNQNIPRQAIKPNPLQMAFLAQQAIKQWQISSGQGTPSTTNSTSSTPSSPTITSAAGYDGKAFGSPMIDLSSPVGGSYNLPSLPDIDCSSTIMLDNIVRKDTNIDHGQPRPPSNRTVQSPNSSVPSPGLAGPVTMTSVHPPIRSPSASSVGSRGSSGSSSKPAGADSTHKVPVVMLEPIRIKQENSGPPENYDFPVVIVKQESDEESRPQNANYPRSILTSLLLNSSQSSTSEETVLRSDAPDSTGDQPGLHQDNSSNGKSEWLDPSQKSPLHVGETRKEDDPNEDWCAVCQNGGELLCCEKCPKVFHLSCHVPTLTNFPSGEWICTFCRDLSKPEVEYDCDAPSHNSEKKKTEGLVKLTPIDKRKCERLLLFLYCHEMSLAFQDPVPLTVPDYYKIIKNPMDLSTIKKRLQEDYSMYSKPEDFVADFRLIFQNCAEFNEPDSEVANAGIKLENYFEELLKNLYPEKRFPKPEFRNESEDNKFSDDSDDDFVQPRKKRLKSIEERQLLK
Q: How did the binding [3] turn out when B1 was run?
A: binds
